Earlier results, collected in US20080039500A1, “Cerebral Infarction Suppressant” (priority 2004, published 2008).
At least one structure is not confirmed: it was looked up by name or label, or the drawing left a doubt.

System: neuronal death
Conditions: co-administered with histidine; ranitidine used concomitantly with mepyramine; cited from earlier work

Structure (SMILES): CNC(=C[N+](=O)[O-])NCCSCc1ccc(CN(C)C)o1 [ranitidine]
- alleviation of nerve cell death by histidine in presence of histamine receptor blocker: disappears completely
